# Reference: the supplement of paper PMC8728848
# The list shows a part of the results.
# B1: Awp1 (Candida glabrata) (protein)
# chain: MSLITIFAFLIKATLVLSLDILTPTTLTGDQTFNEDVSVVSSLTLNDGSQYLFNNLLQIAPSSASVTANALAAVSVFTFSLPPSSSLSNSGTLIISNSNTGPSTEQHIVITPNVMANTGTITLSLAHTNTDSSSTLIIDPVTFYNTGTINYESIGSETNDPSLTGNILSIGSSGRTLQNLGTINLNAANSYYLLGTITENSGSINVQKGFLYVNALDFIGNTINLSTTTALAFISPVSQVVRVRGVFFGNIIASVGSSGTFSYNTQTGILTVTTNGVYSYDIGCGYNPALMSGQQETLSFQGNPYDTFLVLVNQPIPSDLTCAAVSSSITPSSSVEPSSSVVPSSSVEPSSSVEPSSSVEPSSSVEPSSSVEPSSSVEPSSSVEPSSSVEPSSSVEPSSSVEPSSSVEPSSSVEPSSSVEPSSSVEPSSSVEPSSSVEPSSSVEPSSSVEPSSSVEPSSLIVPSSSVEPSSSVLPSSSVVPSSSVEPSTPPIPSSSVEPSSSVVPSSPAVPSSSVEPSTPPIPSSSVVSASVFDTSSTLPSSPSVPPSSVSPSTISTPSSSAAPSSFCPTCVSSGTPPAPSSSAIVPTSSAGGGNGGDNREPGAAGQPGAAGQPGAAGQPGAAGQPGAAGQPGAAGQPGAAGQPGAAGQPGAAGQPGAAGQPGAGFGVGSEQPTPGAGAGSGSADGNQSGTGSGTGNGQQGSGQAGSGQAGSGQEGSGQAGSGQAGSGQAGSGQAGSGQAGLDNTASGQSEGGQASAMDGDQSGRDGQSNSGSLLQPNAQQGTGSGTGSDIGADQASGESPGQIGDAQPGSGTDQSSGRHSLAAEARTSQSHSLAADARTRSTTRQTSVIAPDTAPGTASGTAPGTAPGTAVVTTFHGCGTVNHKGMINILLALALLVLL
# Legend:
# Test in all cases: glycan array binding signal (z-score within array); higher = stronger binding
# Details in all cases: glycan notation: IUPAC condensed, linker removed
# [1] = target: Neu5Ac(a2-3)Gal(b1-4)GlcNAc(b1-6)GalNAc
# Procedure, shortened: (§1)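 Columns mapping to the same glycan were averaged after glycan names were converted to IUPAC-condensed notation. The data come from 3228 arrays in the Consortium for Functional Glycomics database, limited to those with an available protein sequence. Binding is reported as a within-array Z-score averaged across arrays of one protein sequence and across linkers.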
# [2] = target: Neu5Ac(a2-3)Gal(b1-4)GlcNAc(b1-6)[Gal(b1-3)]GalNAc
# Procedure, shortened: as §1
# [3] = target: Neu5Ac(a2-3)Gal(b1-4)GlcNAc(b1-6)[Neu5Ac(a2-3)Gal(b1-3)]GalNAc
# Procedure, shortened: as §1
# [4] = target: Neu5Ac(a2-3)Gal(b1-4)GlcNAc6S
# Procedure, shortened: as §1
# [5] = target: Neu5Ac(a2-3)Gal(b1-4)[Fuc(a1-3)]GlcNAc
# Procedure, shortened: as §1
# [6] = target: Neu5Ac(a2-3)Gal(b1-4)[Fuc(a1-3)]GlcNAc(b1-2)Man
# Procedure, shortened: as §1
# [7] = target: Neu5Ac(a2-3)Gal(b1-4)[Fuc(a1-3)]GlcNAc(b1-3)Gal
# Procedure, shortened: as §1
# [8] = target: Neu5Ac(a2-3)Gal(b1-4)[Fuc(a1-3)]GlcNAc(b1-3)Gal(b1-4)GlcNAc
# Procedure, shortened: as §1
# [9] = target: Neu5Ac(a2-3)Gal(b1-4)[Fuc(a1-3)]GlcNAc(b1-3)Gal(b1-4)[Fuc(a1-3)]GlcNAc(b1-3)Gal(b1-4)[Fuc(a1-3)]GlcNAc
# Procedure, shortened: as §1
# [10] = target: Neu5Ac(a2-3)Gal(b1-4)[Fuc(a1-3)]GlcNAc(b1-3)GalNAc
# Procedure, shortened: as §1
# [11] = target: Neu5Ac(a2-3)Gal(b1-4)[Fuc(a1-3)]GlcNAc(b1-6)[Gal(b1-3)]GalNAc
# Procedure, shortened: as §1
# [12] = target: Neu5Ac(a2-3)Gal(b1-4)[Fuc(a1-3)]GlcNAc(b1-6)[Neu5Ac(a2-3)Gal(b1-3)]GalNAc
# Procedure, shortened: as §1
# [13] = target: Neu5Ac(a2-3)Gal(b1-4)[Fuc(a1-3)]GlcNAc6S
# Procedure, shortened: as §1
# [14] = target: Neu5Ac(a2-3)Gal6S(b1-4)GlcNAc
# Procedure, shortened: as §1
# [15] = target: Neu5Ac(a2-3)Gal6S(b1-4)[Fuc(a1-3)]GlcNAc
# Procedure, shortened: as §1
# Neu5Ac(a2-3)GalNAc = target: Neu5Ac(a2-3)GalNAc
# Procedure, shortened: as §1
# [16] = target: Neu5Ac(a2-3)GalNAc(b1-4)GlcNAc
# Procedure, shortened: as §1
# [17] = target: Neu5Ac(a2-3)[GalNAc(b1-4)]Gal(b1-4)Glc
# Procedure, shortened: as §1
# [18] = target: Neu5Ac(a2-3)[GalNAc(b1-4)]Gal(b1-4)GlcNAc
# Procedure, shortened: as §1
# [19] = target: Neu5Ac(a2-3)[GalNAc(b1-4)]Gal(b1-4)GlcNAc(b1-3)GalNAc
# Procedure, shortened: as §1
# [20] = target: Neu5Ac(a2-3)[Neu5Ac(a2-6)]GalNAc
# Procedure, shortened: as §1
# Neu5Ac(a2-6)Gal = target: Neu5Ac(a2-6)Gal
# Procedure, shortened: as §1
# [21] = target: Neu5Ac(a2-6)Gal(b1-3)GlcNAc(b1-3)[Gal(b1-4)GlcNAc(b1-6)]Gal(b1-4)Glc
# Procedure, shortened: as §1
# Neu5Ac(a2-6)Gal(b1-4)Glc = target: Neu5Ac(a2-6)Gal(b1-4)Glc
# Procedure, shortened: as §1
# [22] = target: Neu5Ac(a2-6)Gal(b1-4)GlcNAc
# Procedure, shortened: as §1
# [23] = target: Neu5Ac(a2-6)Gal(b1-4)GlcNAc(b1-2)Man
# Procedure, shortened: as §1
# [24] = target: Neu5Ac(a2-6)Gal(b1-4)GlcNAc(b1-2)Man(a1-3)Man(b1-4)GlcNAc(b1-4)GlcNAc
# Procedure, shortened: as §1
# [25] = target: Neu5Ac(a2-6)Gal(b1-4)GlcNAc(b1-2)Man(a1-3)[Gal(b1-4)GlcNAc(b1-2)Man(a1-6)]Man(b1-4)GlcNAc(b1-4)GlcNAc
# Procedure, shortened: as §1
# [26] = target: Neu5Ac(a2-6)Gal(b1-4)GlcNAc(b1-2)Man(a1-3)[GlcNAc(b1-2)Man(a1-6)]Man(b1-4)GlcNAc(b1-4)GlcNAc
# Procedure, shortened: as §1
# [27] = target: Neu5Ac(a2-6)Gal(b1-4)GlcNAc(b1-2)Man(a1-3)[GlcNAc(b1-4)][Neu5Ac(a2-6)Gal(b1-4)GlcNAc(b1-2)Man(a1-6)]Man(b1-4)GlcNAc(b1-4)GlcNAc
# Procedure, shortened: as §1
binder,measurement,setting,value
B1,glycan array binding signal (z-score),[1],0.074
same,glycan array binding signal (z-score),[2],0.169
same,glycan array binding signal (z-score),[3],-0.869
same,glycan array binding signal (z-score),[4],-1.38
same,glycan array binding signal (z-score),[5],-0.479
same,glycan array binding signal (z-score),[6],-0.217
same,glycan array binding signal (z-score),[7],0.412
same,glycan array binding signal (z-score),[8],0.387
same,glycan array binding signal (z-score),[9],-0.603
same,glycan array binding signal (z-score),[10],-0.159
same,glycan array binding signal (z-score),[11],-0.493
same,glycan array binding signal (z-score),[12],-0.362
same,glycan array binding signal (z-score),[13],0.32
same,glycan array binding signal (z-score),[14],0.541
same,glycan array binding signal (z-score),[15],-1.52
same,glycan array binding signal (z-score),Neu5Ac(a2-3)GalNAc,-0.396
same,glycan array binding signal (z-score),[16],0.6
same,glycan array binding signal (z-score),[17],0.806
same,glycan array binding signal (z-score),[18],-0.217
same,glycan array binding signal (z-score),[19],0.647
same,glycan array binding signal (z-score),[20],1.23
same,glycan array binding signal (z-score),Neu5Ac(a2-6)Gal,0.031
same,glycan array binding signal (z-score),[21],-1.16
same,glycan array binding signal (z-score),Neu5Ac(a2-6)Gal(b1-4)Glc,-1.39
same,glycan array binding signal (z-score),[22],-1.2
same,glycan array binding signal (z-score),[23],-1
same,glycan array binding signal (z-score),[24],-0.919
same,glycan array binding signal (z-score),[25],1.82
same,glycan array binding signal (z-score),[26],0.097
same,glycan array binding signal (z-score),[27],0.574

# Part of the list above, with tabs.
binder	measurement	setting	value
B1	glycan array binding signal (z-score)	[8]	0.387
same	glycan array binding signal (z-score)	[9]	-0.603
same	glycan array binding signal (z-score)	[10]	-0.159
same	glycan array binding signal (z-score)	[11]	-0.493
same	glycan array binding signal (z-score)	[12]	-0.362
same	glycan array binding signal (z-score)	[13]	0.32
same	glycan array binding signal (z-score)	[14]	0.541
same	glycan array binding signal (z-score)	[15]	-1.52
